The list shows a part of the results, in another mix than the full data.
compound: COC(=O)C#Cc1ccccc1 [methyl 3-phenylpropiolate]; test: log2 ratio of iodoacetamide-alkyne labeling of the cysteine site, DMSO over compound (competition); higher = stronger covalent engagement of the cysteine by the compound, active = 1 or more; conditions: 500 µM; treatment time 1 h; system: HEK293T cell lysate
Outline: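 After 1 h at ambient temperature with vehicle or electrophile (500 µM), HEK293T lysate (2 mg/mL) was labelled for 1 h with iodoacetamide alkyne and clicked to sCIP-TMT reagents. Pooled samples were trypsin-digested overnight at 37 °C, streptavidin-enriched, acid-eluted and analysed by Orbitrap Eclipse LC-MS/MS with FAIMS, then quantified in FragPipe over three replicates with duplicate channels. A cysteine's log2 competition ratio is its mean control-channel over mean compound-channel reporter intensity. Cysteines quantified in only one replicate were not included.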

Amino acid sequences for entries named in this document (tags omitted). A change or cut given only in a name is not applied to a line headed by its entry.
UniProt Q6PJT7: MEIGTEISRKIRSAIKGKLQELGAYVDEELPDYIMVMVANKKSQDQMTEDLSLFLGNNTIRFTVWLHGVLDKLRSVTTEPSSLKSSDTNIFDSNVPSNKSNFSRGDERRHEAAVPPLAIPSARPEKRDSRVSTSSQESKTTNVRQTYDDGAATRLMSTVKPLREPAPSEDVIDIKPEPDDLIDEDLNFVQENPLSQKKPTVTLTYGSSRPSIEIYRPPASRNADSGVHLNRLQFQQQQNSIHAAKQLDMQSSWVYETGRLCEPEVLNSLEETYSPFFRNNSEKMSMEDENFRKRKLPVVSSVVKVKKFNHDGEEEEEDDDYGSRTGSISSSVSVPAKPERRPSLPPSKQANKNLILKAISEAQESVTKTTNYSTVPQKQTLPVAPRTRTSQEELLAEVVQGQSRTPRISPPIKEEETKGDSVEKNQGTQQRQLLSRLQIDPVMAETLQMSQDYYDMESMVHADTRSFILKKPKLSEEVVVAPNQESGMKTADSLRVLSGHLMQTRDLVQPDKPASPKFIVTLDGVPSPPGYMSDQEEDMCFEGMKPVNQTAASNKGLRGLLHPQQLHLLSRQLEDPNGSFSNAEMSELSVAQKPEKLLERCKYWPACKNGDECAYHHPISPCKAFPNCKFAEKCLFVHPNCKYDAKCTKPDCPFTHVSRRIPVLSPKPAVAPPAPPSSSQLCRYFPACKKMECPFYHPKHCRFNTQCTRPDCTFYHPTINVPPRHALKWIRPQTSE
UniProt Q5VUA4: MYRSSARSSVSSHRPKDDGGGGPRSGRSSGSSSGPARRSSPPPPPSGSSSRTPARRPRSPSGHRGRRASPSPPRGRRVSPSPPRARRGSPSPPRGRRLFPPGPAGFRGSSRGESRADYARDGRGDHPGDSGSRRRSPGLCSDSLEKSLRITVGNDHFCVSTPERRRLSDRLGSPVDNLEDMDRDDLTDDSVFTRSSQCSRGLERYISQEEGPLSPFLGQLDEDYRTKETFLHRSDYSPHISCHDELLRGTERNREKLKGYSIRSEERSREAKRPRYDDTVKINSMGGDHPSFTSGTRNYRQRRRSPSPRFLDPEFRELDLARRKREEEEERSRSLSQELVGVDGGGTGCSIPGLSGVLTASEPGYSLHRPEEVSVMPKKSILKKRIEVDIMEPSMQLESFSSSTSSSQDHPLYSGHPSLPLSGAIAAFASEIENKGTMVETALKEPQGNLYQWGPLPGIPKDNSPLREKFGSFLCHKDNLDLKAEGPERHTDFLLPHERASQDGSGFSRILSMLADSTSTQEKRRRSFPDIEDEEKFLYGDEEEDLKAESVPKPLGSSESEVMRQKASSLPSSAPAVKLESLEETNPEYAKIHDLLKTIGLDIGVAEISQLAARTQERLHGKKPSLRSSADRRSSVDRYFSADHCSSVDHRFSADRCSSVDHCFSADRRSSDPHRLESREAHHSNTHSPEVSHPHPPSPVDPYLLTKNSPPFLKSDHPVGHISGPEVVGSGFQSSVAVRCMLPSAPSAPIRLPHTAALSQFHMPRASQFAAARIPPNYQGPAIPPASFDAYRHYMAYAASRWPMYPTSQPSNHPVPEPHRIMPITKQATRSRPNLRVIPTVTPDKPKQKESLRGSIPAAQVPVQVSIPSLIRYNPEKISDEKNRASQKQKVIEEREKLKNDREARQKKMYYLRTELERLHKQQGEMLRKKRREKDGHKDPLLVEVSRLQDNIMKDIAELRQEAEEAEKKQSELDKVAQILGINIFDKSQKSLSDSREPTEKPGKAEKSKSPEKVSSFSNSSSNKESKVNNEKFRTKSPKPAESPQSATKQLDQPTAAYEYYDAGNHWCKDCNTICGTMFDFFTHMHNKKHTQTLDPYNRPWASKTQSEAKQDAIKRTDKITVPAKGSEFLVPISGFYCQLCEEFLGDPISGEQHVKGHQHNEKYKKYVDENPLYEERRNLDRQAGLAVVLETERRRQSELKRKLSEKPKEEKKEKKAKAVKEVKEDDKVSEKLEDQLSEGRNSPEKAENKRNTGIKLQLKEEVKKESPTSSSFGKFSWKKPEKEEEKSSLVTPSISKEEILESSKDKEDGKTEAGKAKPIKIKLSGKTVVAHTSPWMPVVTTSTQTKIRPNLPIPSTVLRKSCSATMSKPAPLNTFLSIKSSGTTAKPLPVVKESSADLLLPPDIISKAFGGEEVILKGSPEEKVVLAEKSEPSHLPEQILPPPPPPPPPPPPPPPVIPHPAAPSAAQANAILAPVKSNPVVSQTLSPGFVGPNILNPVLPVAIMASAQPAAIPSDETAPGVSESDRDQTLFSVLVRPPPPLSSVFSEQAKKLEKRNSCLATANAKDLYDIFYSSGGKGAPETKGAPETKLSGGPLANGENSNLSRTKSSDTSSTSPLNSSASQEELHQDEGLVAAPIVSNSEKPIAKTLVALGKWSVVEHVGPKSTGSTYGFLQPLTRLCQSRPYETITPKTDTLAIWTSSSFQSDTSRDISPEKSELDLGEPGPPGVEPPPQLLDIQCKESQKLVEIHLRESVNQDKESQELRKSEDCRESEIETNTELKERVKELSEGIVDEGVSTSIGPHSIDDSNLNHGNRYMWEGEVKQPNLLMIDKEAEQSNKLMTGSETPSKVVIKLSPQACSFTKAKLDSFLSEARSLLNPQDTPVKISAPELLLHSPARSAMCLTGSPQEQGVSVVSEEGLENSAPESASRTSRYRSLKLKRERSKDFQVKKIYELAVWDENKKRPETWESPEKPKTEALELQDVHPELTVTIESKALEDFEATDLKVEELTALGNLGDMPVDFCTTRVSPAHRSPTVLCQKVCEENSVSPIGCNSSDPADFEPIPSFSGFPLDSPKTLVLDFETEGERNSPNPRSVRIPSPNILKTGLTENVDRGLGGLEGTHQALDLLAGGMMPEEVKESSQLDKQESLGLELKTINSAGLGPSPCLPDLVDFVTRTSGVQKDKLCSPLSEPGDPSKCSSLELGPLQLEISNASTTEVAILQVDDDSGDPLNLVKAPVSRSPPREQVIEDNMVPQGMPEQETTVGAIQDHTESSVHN
UniProt Q5W0B1: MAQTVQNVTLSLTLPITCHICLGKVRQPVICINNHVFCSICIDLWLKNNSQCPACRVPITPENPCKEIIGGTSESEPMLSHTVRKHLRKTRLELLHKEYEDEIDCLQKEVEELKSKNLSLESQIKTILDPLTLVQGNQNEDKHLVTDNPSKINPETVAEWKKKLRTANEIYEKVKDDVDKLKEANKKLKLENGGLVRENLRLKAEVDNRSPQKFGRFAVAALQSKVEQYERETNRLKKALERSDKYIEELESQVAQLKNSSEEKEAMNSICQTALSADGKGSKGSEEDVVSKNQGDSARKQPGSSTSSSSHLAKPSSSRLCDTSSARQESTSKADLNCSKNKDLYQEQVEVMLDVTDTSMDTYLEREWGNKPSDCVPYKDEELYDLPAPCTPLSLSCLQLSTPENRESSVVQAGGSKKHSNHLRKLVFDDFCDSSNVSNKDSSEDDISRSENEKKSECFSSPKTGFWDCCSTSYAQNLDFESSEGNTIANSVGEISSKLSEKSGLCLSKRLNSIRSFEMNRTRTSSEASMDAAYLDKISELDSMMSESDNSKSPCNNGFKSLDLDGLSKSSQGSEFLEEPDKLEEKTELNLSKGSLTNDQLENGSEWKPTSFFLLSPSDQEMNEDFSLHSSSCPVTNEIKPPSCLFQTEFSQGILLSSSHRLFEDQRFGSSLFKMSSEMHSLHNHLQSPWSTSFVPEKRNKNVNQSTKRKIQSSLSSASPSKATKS
UniProt Q6PD74: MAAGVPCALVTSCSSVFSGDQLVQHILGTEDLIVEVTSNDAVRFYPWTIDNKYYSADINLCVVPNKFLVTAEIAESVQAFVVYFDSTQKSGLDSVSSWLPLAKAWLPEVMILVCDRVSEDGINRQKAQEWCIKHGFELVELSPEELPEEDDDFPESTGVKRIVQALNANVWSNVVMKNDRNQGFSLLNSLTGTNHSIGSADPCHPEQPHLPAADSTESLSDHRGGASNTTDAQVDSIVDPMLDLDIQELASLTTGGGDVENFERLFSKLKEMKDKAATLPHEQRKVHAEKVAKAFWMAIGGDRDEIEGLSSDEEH
UniProt Q6AI12: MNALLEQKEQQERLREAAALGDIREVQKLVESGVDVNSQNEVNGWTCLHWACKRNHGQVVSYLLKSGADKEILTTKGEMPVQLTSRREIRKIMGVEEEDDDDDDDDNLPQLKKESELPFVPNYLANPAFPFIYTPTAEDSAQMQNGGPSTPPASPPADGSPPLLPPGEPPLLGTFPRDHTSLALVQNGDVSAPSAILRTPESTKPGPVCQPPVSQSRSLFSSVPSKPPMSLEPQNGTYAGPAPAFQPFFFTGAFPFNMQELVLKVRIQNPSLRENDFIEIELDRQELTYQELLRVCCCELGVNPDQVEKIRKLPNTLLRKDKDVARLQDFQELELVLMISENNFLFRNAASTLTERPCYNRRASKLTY
UniProt Q5JSL3: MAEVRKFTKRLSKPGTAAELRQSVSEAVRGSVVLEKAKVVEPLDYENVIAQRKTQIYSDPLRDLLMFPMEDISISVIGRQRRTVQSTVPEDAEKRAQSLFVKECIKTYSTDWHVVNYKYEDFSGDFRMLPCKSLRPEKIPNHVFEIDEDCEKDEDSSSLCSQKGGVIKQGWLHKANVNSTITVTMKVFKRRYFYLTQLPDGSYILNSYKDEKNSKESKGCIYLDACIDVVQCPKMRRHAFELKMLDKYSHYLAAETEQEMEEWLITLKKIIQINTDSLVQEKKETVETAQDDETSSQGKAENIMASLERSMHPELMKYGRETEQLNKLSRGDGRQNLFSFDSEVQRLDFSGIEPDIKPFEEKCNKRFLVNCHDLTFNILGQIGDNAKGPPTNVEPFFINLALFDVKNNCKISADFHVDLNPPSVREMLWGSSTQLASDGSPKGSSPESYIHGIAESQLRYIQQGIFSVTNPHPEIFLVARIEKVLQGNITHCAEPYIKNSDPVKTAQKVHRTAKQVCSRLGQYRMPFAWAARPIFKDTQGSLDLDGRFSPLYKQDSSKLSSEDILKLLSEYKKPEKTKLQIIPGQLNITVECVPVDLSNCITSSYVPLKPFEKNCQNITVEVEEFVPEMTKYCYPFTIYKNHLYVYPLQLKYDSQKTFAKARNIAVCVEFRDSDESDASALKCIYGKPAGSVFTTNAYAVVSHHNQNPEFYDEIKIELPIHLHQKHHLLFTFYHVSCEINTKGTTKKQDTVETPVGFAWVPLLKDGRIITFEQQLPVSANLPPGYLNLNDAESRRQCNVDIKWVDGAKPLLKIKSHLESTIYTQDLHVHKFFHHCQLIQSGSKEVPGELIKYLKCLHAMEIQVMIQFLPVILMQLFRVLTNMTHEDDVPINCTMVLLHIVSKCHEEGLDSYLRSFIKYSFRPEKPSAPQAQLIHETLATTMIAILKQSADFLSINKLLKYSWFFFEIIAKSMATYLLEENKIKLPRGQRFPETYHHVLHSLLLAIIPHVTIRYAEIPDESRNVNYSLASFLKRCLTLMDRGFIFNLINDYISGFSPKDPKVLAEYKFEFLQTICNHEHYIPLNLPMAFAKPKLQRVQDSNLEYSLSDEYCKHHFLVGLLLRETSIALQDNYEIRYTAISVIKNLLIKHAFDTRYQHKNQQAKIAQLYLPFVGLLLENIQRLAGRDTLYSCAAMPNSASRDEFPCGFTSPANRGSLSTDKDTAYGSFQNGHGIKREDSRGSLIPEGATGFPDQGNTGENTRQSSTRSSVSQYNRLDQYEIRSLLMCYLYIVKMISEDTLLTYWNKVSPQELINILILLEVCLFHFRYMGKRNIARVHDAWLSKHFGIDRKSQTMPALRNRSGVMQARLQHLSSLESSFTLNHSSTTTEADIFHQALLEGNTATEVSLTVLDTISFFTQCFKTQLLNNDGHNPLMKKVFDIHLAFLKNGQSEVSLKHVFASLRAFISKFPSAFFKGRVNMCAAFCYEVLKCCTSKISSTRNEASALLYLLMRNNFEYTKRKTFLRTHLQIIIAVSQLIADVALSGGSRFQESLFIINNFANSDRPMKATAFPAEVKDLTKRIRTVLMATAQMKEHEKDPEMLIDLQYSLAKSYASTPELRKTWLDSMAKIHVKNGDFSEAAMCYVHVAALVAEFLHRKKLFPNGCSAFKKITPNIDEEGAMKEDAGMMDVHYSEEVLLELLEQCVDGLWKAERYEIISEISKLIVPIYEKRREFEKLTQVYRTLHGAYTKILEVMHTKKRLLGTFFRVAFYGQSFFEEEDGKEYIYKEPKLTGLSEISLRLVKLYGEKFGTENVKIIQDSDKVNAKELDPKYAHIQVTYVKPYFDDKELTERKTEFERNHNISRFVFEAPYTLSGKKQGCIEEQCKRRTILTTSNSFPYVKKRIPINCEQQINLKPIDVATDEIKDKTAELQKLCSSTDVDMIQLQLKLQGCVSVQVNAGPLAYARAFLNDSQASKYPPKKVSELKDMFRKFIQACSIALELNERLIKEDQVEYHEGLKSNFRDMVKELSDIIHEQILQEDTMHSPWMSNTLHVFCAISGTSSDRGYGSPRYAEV

Row | Target | log2 ratio of iodoacetamide-alkyne labeling
1 | ARID2 C1549 (UniProt Q68CP9) | inactive: 0.434
2 | SPECC1 C493 (UniProt Q5M775) | inactive: 0.129
3 | ZC3H14 C261 (UniProt Q6PJT7) | inactive: 0.396
4 | ZNF318 C242 (UniProt Q5VUA4) | inactive: 0.289
5 | UniProt Q5THK1_C92 | inactive: 0.559
6 | TAF2 C1093 (UniProt Q6P1X5) | inactive: 0.285
7 | FAM91A1 C141 (UniProt Q658Y4) | inactive: 0.479
8 | UniProt Q5FBB7_C44 | inactive: 0.306
9 | TTC37 C1280 (UniProt Q6PGP7) | inactive: 0.103
10 | UniProt Q5W0B1_C105 | inactive: 0.0516
11 | ZC3H14 C540 (UniProt Q6PJT7) | inactive: 0.465
12 | AAGAB C203 (UniProt Q6PD74) | inactive: 0.0796
13 | HP1BP3 C412 (UniProt Q5SSJ5) | inactive: -0.0369
14 | MTHFD1L C778 (UniProt Q6UB35) | active: 1.1
15 | FBXL19 C145 (UniProt Q6PCT2) | inactive: -0.632
16 | MTHFD1L C779 (UniProt Q6UB35) | inactive: 0.893
17 | IQSEC1 C906 (UniProt Q6DN90) | inactive: 0.413
18 | CEP170 C967 (UniProt Q5SW79) | inactive: 0.211
19 | ANKRD40 C358 (UniProt Q6AI12) | active: 1.2

Laid out differently: entries from further up
Row,Target,log2 ratio of iodoacetamide-alkyne labeling
5,UniProt Q5THK1_C92,inactive: 0.559
6,TAF2 C1093 (UniProt Q6P1X5),inactive: 0.285
7,FAM91A1 C141 (UniProt Q658Y4),inactive: 0.479

Going on with the list.

Row | Target | log2 ratio of iodoacetamide-alkyne labeling
20 | NUP188 C9 (UniProt Q5SRE5) | inactive: 0.746
21 | LIN9 C435 (UniProt Q5TKA1) | inactive: 0.606
22 | NFXL1 C212 (UniProt Q6ZNB6) | inactive: -0.0301
23 | TAPT1 C562 (UniProt Q6NXT6) | inactive: 0.285
24 | UniProt Q712K3_C191 | inactive: 0.208
25 | C19orf54 C271 (UniProt Q5BKX5) | inactive: -0.0359
26 | THADA C283 (UniProt Q6YHU6) | inactive: 0.143
27 | INTS3 C498 (UniProt Q68E01) | inactive: 0.142
28 | NADSYN1 C309 (UniProt Q6IA69) | inactive: 0.107
29 | DNTTIP2 C618 (UniProt Q5QJE6) | inactive: 0.081
30 | PDE12 C108 (UniProt Q6L8Q7) | inactive: 0.84
31 | BCORL1 C139 (UniProt Q5H9F3) | inactive: 0.368
32 | ZNF318 C1903 (UniProt Q5VUA4) | inactive: 0.31
33 | ZNF318 C2168 (UniProt Q5VUA4) | inactive: 0.167
34 | TBC1D9B C444 (UniProt Q66K14) | inactive: 0.39
35 | UniProt Q5H9R7_C467 | inactive: 0.103
36 | DOCK11 C592 (UniProt Q5JSL3) | inactive: -0.217
37 | NIPBL C1876 (UniProt Q6KC79) | inactive: 0.17
38 | NOM1 C65 (UniProt Q5C9Z4) | inactive: 0.385

— the supplement of paper PMC11006884
